No constants are given. Whether binding was seen depends on the method and setting. In cells and extracts the contact can be indirect. Some binding calls cover weakened binding; strength is not graded here.
Molecular target: Wiskott–Aldrich syndrome protein (mouse (endogenous in thymocytes)) (UniProt P70315)
Assay: co-IP; WASp immunoprecipitated with the WASp F-8 Ab from mouse thymocyte nuclear extracts, protein G-Sepharose, 10 h + 4 h at 4 °C, three washes in cold PBS; western blot for TCF1; mouse IgG2A as isotype control IP

The chains behind the UniProt entries cited, without tags or fusion partners.
UniProt P70315: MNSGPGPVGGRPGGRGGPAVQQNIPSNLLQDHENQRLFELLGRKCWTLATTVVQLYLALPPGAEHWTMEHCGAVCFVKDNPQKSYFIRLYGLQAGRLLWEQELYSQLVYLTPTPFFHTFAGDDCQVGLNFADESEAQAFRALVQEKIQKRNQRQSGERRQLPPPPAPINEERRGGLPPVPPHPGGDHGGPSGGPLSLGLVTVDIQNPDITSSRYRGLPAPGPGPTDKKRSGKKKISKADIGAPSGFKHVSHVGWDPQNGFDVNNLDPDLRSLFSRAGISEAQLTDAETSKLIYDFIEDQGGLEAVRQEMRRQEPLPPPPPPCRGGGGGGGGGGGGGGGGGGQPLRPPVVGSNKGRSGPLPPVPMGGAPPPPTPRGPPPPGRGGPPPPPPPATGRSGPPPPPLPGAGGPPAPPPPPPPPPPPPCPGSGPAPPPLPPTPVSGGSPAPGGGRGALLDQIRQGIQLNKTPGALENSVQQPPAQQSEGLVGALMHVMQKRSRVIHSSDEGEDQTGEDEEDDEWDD
UniProt Q00417: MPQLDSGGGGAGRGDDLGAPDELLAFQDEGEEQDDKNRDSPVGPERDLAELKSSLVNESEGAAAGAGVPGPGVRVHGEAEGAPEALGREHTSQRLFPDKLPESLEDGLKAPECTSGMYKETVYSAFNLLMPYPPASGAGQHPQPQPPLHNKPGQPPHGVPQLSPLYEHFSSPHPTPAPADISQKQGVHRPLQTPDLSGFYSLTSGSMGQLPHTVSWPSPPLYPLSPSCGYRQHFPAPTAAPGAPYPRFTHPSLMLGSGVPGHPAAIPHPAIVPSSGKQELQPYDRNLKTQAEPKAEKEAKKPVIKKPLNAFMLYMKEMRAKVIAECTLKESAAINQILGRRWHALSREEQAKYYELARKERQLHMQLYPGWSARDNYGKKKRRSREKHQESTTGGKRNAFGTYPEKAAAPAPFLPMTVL

T cell factor 1 (from UniProt Q00417 1-419)
binding: binds

Reference: PMC5660450
